From the supplement of paper PMC4840960
The other results are listed elsewhere or left out. Plates or batches differ in their baseline, so values are only roughly comparable.

Test system: E18 rat cortical neuron-glia co-culture
Assay: total nuclei (DAPI) / Olig2+ nuclei (ratio); higher = more depletion of OPC/OL lineage cells
Details: treatment time: 8 days (DIV5-DIV13)

With `Cc1ccc(S(=O)(=O)NC(=O)NN2CCCCCC2)cc1` [Tolazamide] the total nuclei (1 µM) was 2.76 and the total nuclei (5 µM) was 2.8.

Compound `CCOC(=O)OC(C)OC1=C(C(=O)Nc2ccccn2)N(C)S(=O)(=O)c2ccccc21` (stereo unspecified) [Ampiroxicam] has a total nuclei (1 µM) of 3.78 and a total nuclei (5 µM) of 4.7.

For `CCN(CC)CCOC(=O)c1ccc(N)cc1` [Procaine], the total nuclei (1 µM) was 2.68 and the total nuclei (5 µM) was 2.5.

`COC(=O)C1=C(C)NC(C)=C(C(=O)OC2CCCN(Cc3ccccc3)C2)C1c1cccc([N+](=O)[O-])c1` (stereo unspecified) [Benidipine] showed a total nuclei (1 µM) of 5.21 and a total nuclei (5 µM) of 35.9.

Compound `Cc1ccc(Cl)c(Nc2ccccc2C(=O)O)c1Cl` [Meclofenamic acid] has a total nuclei (1 µM) of 2.5 and a total nuclei (5 µM) of 2.5.

Work on `CCOC(=O)C1=C(C)NC(C)=C(C(=O)OC)C1c1cccc(Cl)c1Cl` (stereo unspecified) [Felodipine] yielded a total nuclei (1 µM) of 4.37 and a total nuclei (5 µM) of 9.2.

With `O=C1NC(C(=O)O)CS1` (stereo unspecified) [2-oxothiazolidine-4-carboxylic acid] the total nuclei (1 µM) was 5.43 and the total nuclei (5 µM) was 4.1.

In the case of `CN1CCN2c3ncccc3Cc3ccccc3C2C1` (stereo unspecified) [Mirtazapine], the total nuclei (1 µM) is reported as 3.27 and the total nuclei (5 µM) is reported as 3.9.

For `Cc1nc2ccccn2c(=O)c1CCN1CCC(C(=O)c2ccc(F)cc2)CC1` [Pirenperone], the total nuclei (1 µM) was 2.84 and the total nuclei (5 µM) was 2.6.

`CCN1CC(CCN2CCOCC2)C(c2ccccc2)(c2ccccc2)C1=O` (stereo unspecified) [Doxapram] was tested, and the total nuclei (1 µM) was 2.88 and the total nuclei (5 µM) was 2.8.

For `NC(=O)c1cnccn1` [Pyrazinamide], the total nuclei (1 µM) was 2.72 and the total nuclei (5 µM) was 2.8.

`Cc1nc2n(c(=O)c1CCN1CCC(c3noc4cc(F)ccc34)CC1)CCCC2` [Risperidone] was tested, and the total nuclei (1 µM) was 2.83 and the total nuclei (5 µM) was 2.9.

`COc1cc(C(=O)NS(=O)(=O)c2ccccc2C)ccc1Cc1cn(C)c2ccc(NC(=O)OC3CCCC3)cc12` [Zafirlukast] showed a total nuclei (1 µM) of 2.71 and a total nuclei (5 µM) of 5.
